Experimental data from US20220298212A1.
These are yes or no findings as the source states them, for the method shown. Some results given as binding are weak or reduced against the parent protein; the word gives no strength.

The chains behind the UniProt entries cited, without tags or fusion partners. Where a name states a change or a piece, a line headed by the entry shows the natural chain unless it says otherwise.
UniProt Q07011: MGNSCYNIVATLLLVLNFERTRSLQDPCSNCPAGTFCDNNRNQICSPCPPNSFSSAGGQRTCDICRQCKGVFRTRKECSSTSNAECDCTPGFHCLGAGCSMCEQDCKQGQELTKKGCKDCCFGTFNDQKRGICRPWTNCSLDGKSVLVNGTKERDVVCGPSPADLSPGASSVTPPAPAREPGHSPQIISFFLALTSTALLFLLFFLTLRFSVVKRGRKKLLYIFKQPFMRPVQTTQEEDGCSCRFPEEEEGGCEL

Assays:
[1] = target: cell membrane-bound human 4-1BB (endogenous, on ionomycin/PMA stimulated CCRF-CEM cells or primary CD8+ T cells) (human) (UniProt Q07011); assay: flow cytometry on PMA/ionomycin stimulated CEM cells, anti-penta-His Alexa Fluor-488 detection
[2] = target: cell membrane-bound human 4-1BB (endogenous, on ionomycin/PMA stimulated CCRF-CEM cells or primary CD8+ T cells) (human) (UniProt Q07011); assay: flow cytometry on PMA/ionomycin stimulated CEM cells (FIG. 8A)

Row | binding [1] | binding [2] | Binder
1 | binds | binds | DARPin® protein #51 (designed binder, not shown: small tags and cut ends) GSDLGQKLLKAAQEGQDDEVRELLKAGADVNAKDLRGITPLHVAAWQGHLEIVEVLLKAGADVNAKDSKGETPLHLAAFRGHLEIVEVLLKAGADVNAQDQQGETPADLAALAGHVDIAEVLQKLNGSPTPTPTTPTPTPTTPTPTPTGSDLGQKLLKAAQEGQDDEVRELLKAGADVNAKDLRGITPLHVAAWQGHLEIVEVLLKAGADVNAKDSKGETPLHLAAFRGHLEIVEVLLKAGADVNAQDQQGETPADLAALAGHVDIAEVLQKLN
2 | binds | binds | DARPin® protein #54 (designed binder, not shown: small tags and cut ends) GSDLGQKLLKAAQEGQDDEVRELLKAGADVNAKDLRGITPLHVAAWQGHLEIVEVLLKAGADVNAKDSKGETPLHLAAFRGHLEIVEVLLKAGADVNAQDQQGETPADLAALAGHVDIAEVLQKLNGSPTPTPTTPTPTPTTPTPTPTGSDLGQKLLKAAQEGQDDEVRELLKAGADVNAKDLRGITPLHVAAWQGHLEIVEVLLKAGADVNAKDSKGETPLHLAAFRGHLEIVEVLLKAGADVNAQDQQGETPADLAALAGHVDIAEVLQKLNGSPTPTPTTPTPTPTTPTPTPTGSDLGQKLLKAAQEGQDDEVRELLKAGADVNAKDLRGITPLHVAAWQGHLEIVEVLLKAGADVNAKDSKGETPLHLAAFRGHLEIVEVLLKAGADVNAQDQQGETPADLAALAGHVDIAEVLQKLN
